Molecules are shown by their SMILES. About 20 (1%) of roughly 1,700 compounds were called active.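 How the source made its calls: active means inhibition above the screen-wide mean plus twice its standard deviation (cut at about 32% in these data); inactive means the rest.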 Only a part is listed here, and it is no random draw.

The assay has as its system Candida albicans drug resistance protein 1 (Cdr1) expressed in S. cerevisiae. Kind of assay: Cdr1 pump blockade via Nile Red efflux – S. cerevisiae AD/CaCDR1, flow cytometry, cherry pick 1, singleplex, confirmation (AID 588522). To be noted: at 10 µM, stronger effect = higher value. (In flow cytometry, cells or beads pass a laser one at a time.)
One may read the inhibition as the drop in the measured response relative to a control, in per cent. Take `O=[N+]([O-])c1cnc2ccc3ccccc3c2c1`: the inhibition is inactive: -0.06%.

`CCN(CC)c1ccc([N+](=O)[O-])c2cccnc12`: the inhibition was inactive: -0.07%.

The values above are taken from PubChem BioAssay AID588522 (NMMLSC, 2011).
